Laboratory results taken from patent US20220017615A1.
Numbering of substitutions follows the chain as printed. These are yes or no findings as the source states them, for the method shown. Binding calls can cover weak binding; strength is not graded here.

B1: 51E2F11 (antibody, V domains shown)
VH: EVQLQQSGAELVKPGASVKLSCTASGFNIKDHYIHWMNQRTEQGLEWIGRIDPDDGETRYAPKFRGKATLTADTSSNTAYLQFSSLTSEDTAVYHCTRATTITRDWYFDVWGTGTTVTVSS
VL: DIVMTQSQKFMSTSVGDRVSITCKASQNVRTSVAWYQQKPGQSPKALIYLASNRHTGIPDRFTGSGSGTDFTLTIRNVQSEDLADYFCLQHWDYPLTFGAGTKLELK
B2: 132D1E5 (antibody, V domains shown)
VH: QVQLQQPGAELVRPGSSVKLSCKASGYTFTNNWMHWVKQRPLQGLEWIGNIDPSDSETHYNQKFKDKATLTVDKSSTTAYIQLSSLTSEDSAVYYCARWRGGGRGAMDYWGQGTSVTVSS
VL: DVQITQSPSYLAASPGETITINCRTSKNISKFLAWYQEKPGKTNKLLIYSGSTLQSGIPSRFSGSGSGTDFTLTISNLEPEDFAMYYCQQHNEYPWTFGRGTKLEIK
B3: 25E3B5 (antibody, V domains shown)
VH: QVQLQQPGTALVRPGSSVKLSCKASGYTFTSYWMHWVRQRPIKGLEWIGNIDPSDSETHYNQRFKDKVTLTVDKSSNTAYMQLSSLTSEDSAVYYCARWKYHGIGAMDYWGQGTSVTVSS
VL: B2 VL with I19V, N22S, S26N, K27R, Q55H, N77R, T97S, R100G
B4: 20H4G5 (antibody, V domains shown)
VH: QVQLQQPGAELVRPGSSVRLSCVTSGYTFTSHWMHWVKQGPIKGLEWIGNIDPSDSETHYNQKFKDKATLTVDKSSSTAYMQLSRLTSDDSAVYYCARWRHLGIGAMDYWGQGTSVIVSS
VL: B2 VL with T25A, E38A, T43S, K45N, N77R, R100G
B5: 54G8G6 (antibody, V domains shown)
VH: QVQLQQPGADLVKPGASVKMSCKASGYTFTSYWIIWVKQRPGQGLEWIGDINPGRGSPNYNEKFKRKATLTVDTSSSTAYMQLSSLTSEDSAVYYCVRGGLRRFDHWGQGTLVTVSA
VL: ENVLTQSPAIMSASPGEKVTMTCRASSSVSSSYLHWYQQKSGASPKLWIYSTSTLASGVPARFSGSGSGTSYSLTISSVEAEDAATYYCQQYSGYPYTFGGGTKLEIK
B6: 4D10B11 (antibody, V domains shown)
VH: QVQLQQSGPELVKPGASVKISCKASGYSFTSYYIHWVKQRPGQGLEWIGWIYPGSGNTKYNEKFKGKATLTADTSSSTADMQLSSLTSEDSAVYYCARRGDWYFDVWGTGTTVTVSS
VL: DIVMSQSPSSLVVSVGEKVTMNCKSSQSLLFSGNQKSSLAWYQQKPGQSPKLLIYWASTRESGVPDRFTGSGSGTDFTLIISTVKAEDLAVYSCQQYYSYPLTFGAGTKLELK
B7: 95E2D10 (antibody, V domains shown)
VH: QIQLQQSGPELVKPGASMKISCKASGYPFTDYYIHWVKQKPGQGLEWIGWIYPGSGNNKYNEKFKGKATLTVDTSPSTVYMQLSSLTSEDTAVYFCARRAGNYFDYWGQGTTLTVSS
VL: NIVMTQSPKSMSRSVGERVTLSCRASENVRTYVFWYQQKPGLSPKLLIYGASNRYIGVPDRFTGSGSATDFTLTISSVQAEDLADYHCGQSYSYPLTFGAGTKLELK
B8: c29A03NA (antibody, V domains shown)
VH: EVQLQQSGAELVKPGASVKMSCKASGYTFTNYWITWVKQRPGQGLEWIGDIYPVSGGTDYNEKFKTRATLTVDTSSSTAYMHLSSLTSEDSAVYYCARKGRGGVDYWGQGTTLTVSS
VL: DILMTQTPLSLPVSLGDQASISCRSSQSIVHSNANTYLEWYLQKPGQSPKLLIYKVSNRFSGVPDRFSGSGSGTDFTLKISRVEAEDLGVYFCSQSTHVPYTFGGGTKLEIK
B9: c51E2F11 (antibody, V domains shown)
VH: B1 VH
VL: B1 VL
B10: c25E3B5 (antibody, V domains shown)
VH: B3 VH
VL: B2 VL with I19V, N22S, S26N, K27R, Q55H, N77R, T97S, R100G
B11: c20H4G5 (antibody, V domains shown)
VH: B4 VH
VL: B2 VL with T25A, E38A, T43S, K45N, N77R, R100G
B12: c132D1E5 (antibody, V domains shown)
VH: B2 VH
VL: B2 VL
B13: c54G8G6 (antibody, V domains shown)
VH: B5 VH
VL: B5 VL
B14: c4D10B11 (antibody, V domains shown)
VH: B6 VH
VL: B6 VL
B15: c95E2D10 (antibody, V domains shown)
VH: B7 VH
VL: B7 VL

Molecular target: cynomolgus CD47, on CHOK1-cCD47 stable cell line (cynomolgus)
Test: FACS CHOK1-cCD47

binding, binds:
B1
B2
B3
B4
B5
B6
B7

Molecular target: cynomolgus CD47, on CHOK1-cCD47 stable cell line (cynomolgus)
Test: FACS on cynomolgus CD47-expressing cells

binding, binds:
B8
B9
B10
B11
B12
B13
B14
B15

Molecular target: cynomolgus CD47, on CHOK1-cCD47 stable cell line (cynomolgus)
Test: flow cytometry (FACS) on CHOK1-cynoCD47 cells, mean fluorescence intensity

binding, binds:
B8
B9
B10
B11
B14
B15
